# Experimental data: patent publication US10750762B2, “Bio-based N-acetyl-L-methionine and use thereof” (CJ Cheiljedang Corporation, priority 2015, dated 2020)
# Experiment: Milk production and composition on feeding N-acetyl-L-methionine
# Type: in vivo, dairy cows
# Procedure: Based on the in vitro evaluation, the N-acetyl-L-methionine, for which high digestive degradation rate in the small intestine and bypass rate in the rumen had been observed, was subjected to verify its efficiency through a substantial evaluation with dairy cows. In order for this, the cows were divided into two separated groups, and the change in milk composition depending on presence or absence of the N-acetyl-L-methionine was analyzed during the evaluation. For this, eight dairy cows were divided into two groups so that each group consists of four cows, respectively. Additionally, the N-acetyl-L-methionine was added to the feed composition (Table 12) which are fed by the four cows in one group (30 g of N-acetyl-L-methionine by each cow per a day), and it was carried out for 84 days. • Group 1: Non-addition of N-acetyl-L-methionine • Group 2: Addition of N-acetyl-L-methionine
compound,measurement,setting,value
CSCC[C@H](NC(C)=O)C(=O)O [N-acetyl-L-methionine],Amount of feed intake (DMI),"30 g per cow per day in feed, 84 days",25.4 kg/day
same,"change in the total feed intake (dry matter intake, DMI)",presence or absence of N-acetyl-L-methionine,not observed
same,"Amount of feed intake (DMI), rate of increase (%)","vs non-addition group, 30 g per cow per day, 84 days",0.0%
